The text below walks through data of PubChem BioAssay AID286 (DTP/NCI, 2004).

The list is a part of this screen's results and no random one: it gathers tests that were run many times, whatever their T/C, doses with no T/C, and many T/C values between a quarter and a half above the control. Other doses and runs of a compound stand elsewhere. T/C gives the treated animals as a percentage of the vehicle group. Some entries give survivors of the animals treated and no T/C: the source holds a T/C of zero for them, seemingly a mark for toxic or unscored doses. Some survivor counts are full or nearly so, which does not show that the dose was tolerated: survival well below the control is almost never listed, so the zero probably covers shortened survival too. Survivors were counted at the toxicity check, usually on the fifth day, unless a day is given; later deaths do not show. Schedules are NCI's codes, taken here to give the interval after Q, in days (D) or hours (H), and the number of doses after X. Where survival is the endpoint, the PubChem record calls one and a half times the control and up active, and a quarter to a half above the control has no call in these data; cut-offs in other NCI protocols can differ. Some T/C values carry the count of animals alive at the toxicity check (mostly the fifth day); without a count, all were alive then.

In this experiment the test system is BDF1 mice, M5076 sarcoma ip, median survival T/C. Description: NCI In Vivo Anticancer Drug Screen. Data for tumor model Sarcoma M5076 (intraperitoneal) in B6D2F1 (BDF1) mice. The following applies: T/C endpoint: median survival time, higher T/C = longer survival. How it is done: The antitumor activity of compounds was measured in mice bearing transplantable tumors. Survival or tumor size were measured and the results are expressed as the measurement made in the treated group (T) divided by the measurement made in the vehicle treated control group (C). The tumor model used in this assay is Sarcoma M5076 (intraperitoneal) in B6D2F1 (BDF1) mice

With `COC1CC2C=C(C)/C=C/C=C/C(=O)NC(c3ccccc3)C/C=C/CCC(O)CC(=O)C2=C1O` (stereo unspecified), the T/C reads like this: (dose: 3.12 mg/kg/injection, schedule: Q01DX009 (ip), vehicle: Klucel (hydroxypropylcellulose) (HPC)) 143 % of control; (dose: 3.13 mg/kg/injection, schedule: Q01DX009 (ip), vehicle: saline with Tween-80) 130 % of control; (dose: 6.25 mg/kg/injection, schedule: Q01DX009 (ip), vehicle: Klucel (hydroxypropylcellulose) (HPC)) 144 % of control [9 of 10 alive on day 9]; (dose: 6.25 mg/kg/injection, schedule: Q01DX009 (ip), vehicle: saline with Tween-80) 131 % of control. Also, the survivor count (dose: 12.5 mg/kg/injection, schedule: Q01DX009 (ip), vehicle: Klucel (hydroxypropylcellulose) (HPC)) was 3 of 10 on day 9; the survivor count (dose: 12.5 mg/kg/injection, schedule: Q01DX009 (ip), vehicle: saline with Tween-80) is listed as 8 of 10 on day 9; the survivor count (dose: 25.0 mg/kg/injection, schedule: Q01DX009 (ip), vehicle: Klucel (hydroxypropylcellulose) (HPC)) is listed as 0 of 10 on day 9; the survivor count (dose: 25.0 mg/kg/injection, schedule: Q01DX009 (ip), vehicle: saline with Tween-80) was 1 of 10 on day 9; the survivor count (dose: 50.0 mg/kg/injection, schedule: Q01DX009 (ip), vehicle: saline with Tween-80) was 0 of 10 on day 9.
Consider `N[C@H](C(=O)O)[C@@H]1CC(Cl)=NO1`, for which, where the note is “dose: 60.0 mg/kg/injection, schedule: Q04DX005 (ip), vehicle: saline”, the T/C was 136 % of control. For the same compound, the survivor count is on record as 4 of 8 on day 17 (dose: 240.0 mg/kg/injection, schedule: Q04DX005 (ip), vehicle: saline) and 2 of 8 on day 17 (dose: 480.0 mg/kg/injection, schedule: Q04DX005 (ip), vehicle: saline).
With `COc1cc(NCc2ccc3nc(N)nc(N)c3c2C)cc(OC)c1OC` (tested in a mixture with another compound), the T/C by setting is: (dose: 20.0 mg/kg/injection, schedule: Q04DX005 (ip), vehicle: water) 127 % of control; (dose: 80.0 mg/kg/injection, schedule: Q04DX005 (ip), vehicle: water) 145 % of control [9 of 10 alive on day 9]; (dose: 160.0 mg/kg/injection, schedule: Q04DX005 (ip), vehicle: water) 142 % of control.
Take `O=C1c2ccccc2C(Cl)(c2ccc(Cl)cc2)c2ccc(Cl)cc21` (stereo unspecified): the survivor count (dose: 800.0 mg/kg/injection, schedule: Q04DX004 (ip), vehicle: saline with Tween-80) was 2 of 10 on day 14.
